Measured values as given in PubChem BioAssay AID1347426 (Functional Genomics Laboratory (NCATS/FGL), 2020).
The whole screen tested about 31,000 sequences, of which about 1,400 (4.5%) were called active.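 Rule for the calls: active = median seed-adjusted z-score above 1 or below -1; inactive = the rest.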 The list shows a part of the results.

Test: Novel Modifiers of Survival Motor Neuron (SMN) Protein: Gene Identification via Genome-wide siRNA Screen;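 note: luminescence tracks full-length SMN protein made from the SMN2 reporter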
Conditions: HEK293T SMN2-luciferase reporter, siRNA knockdown, 72 h; actives lie on both sides
How it was run: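 Genome-wide siRNA screen (10418 genes, 3 siRNAs each, 1 pmol per well) by reverse transfection in HEK293T cells stably carrying an SMN2-luciferase reporter; luminescence after 72 hours, normalized to negative-control siRNA, log10-transformed, MAD-scored.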

Sequence | median seed-adjusted z-score
CAAACUUUCCUGGUGUUUATT against TMPRSS7 | inactive: 0.0269
CGGACAGACCUGUACUUCATT against RERE | inactive: 0.129
GGAUGAAAAAUACCGGUGUTT against UGT8 | inactive: 0
GAAGUAACUCGAACAGUGATT against ARG1 | inactive: -0.108
GGAGGUUCAUAUGCAACAATT against CYLC1 | inactive: 0.177
GCCUCAGAAUUUAAUCAAATT against ALB | inactive: -0.153
GCAUCUCGUUCCGAAUUAATT against RYR2 | inactive: -0.354
CAAGAAAAUCAACUCCAUATT against SHOX2 | inactive: -0.238
GGCCUUAGUUGGUAUGGAATT against ADAM28 | inactive: 0.211
CAUCCAGUGGAAUAAGUGATT against SYNPO2 | inactive: 0
GGCAUUCAGUUACUAUGGATT against SV2B | inactive: -0.43
CUGCUAGAAUGGUUGUAAATT against SUCLA2 | inactive: -0.21
GAAGCAAUCUGGGAAGAGATT against MOCS3 | inactive: -0.496
GGCUCUUCAAGGCUAUGAATT against ANXA6 | active: -1.01
GGUUGCUCUUGUUACGGAUTT against CLTC | inactive: -0.0662
GUGGUGACAUUGUAUCAUUTT against IMMP2L | inactive: 0.919
CUGUGAUUGUCACAAGGAATT against IL16 | inactive: -0.471
CACUCACACUCCUAGGUGGTT against DUX1 | inactive: -0.62
GGACCAACCUCAAACGAGATT against GFI1B | inactive: 0.154
CAACCUUCACCAAACACUATT against ARL2 | inactive: 0.0301
CCGCAAUAGUCAACACUAUTT against ZBTB16 | inactive: 0.431
CCGCAAGCUAUGUAACUUATT against AP3B1 | inactive: 0.31
CAAGGGUAGUGAUAGCGUATT against TGM3 | inactive: 0.257
UGAGUAUCGGAAAAAGGAATT against GABARAPL1 | inactive: 0.402
CCAUAUCACCGACUCCGAATT against HIVEP3 | inactive: 0.516
UGACUGCGGAUAUAACUGATT against LMAN2 | inactive: -0.0921
CACUUGGAAUCACGGGUUGTT against PPM1B | inactive: 0

Individual results from the results shown:
Value for CUGUGAUUGUCACAAGGAATT against IL16 under median seed-adjusted z-score: inactive: -0.471
Value for CCGCAAGCUAUGUAACUUATT against AP3B1 under median seed-adjusted z-score: inactive: 0.31

Next part:

Sequence | median seed-adjusted z-score
CAAUCUAAAGAGUCAUUCATT against E2F5 | inactive: -0.628
GCAAUGUGGUCAAGACGGATT against INHBE | inactive: 0.172
GCCUUUAUGUCAUCCUCAATT against ZNF626 | inactive: 0.185
GGAGAUACGUUGACGAAUATT against CLK4 | inactive: -0.201
GGAAAAACAUUUACUCGAATT against ZNF418 | inactive: 0.804
GCAACGGGAUUUUGAGUUUTT against ZC3H10 | inactive: -0.79
CCAUAUCCGAUGUAAAAUUTT against PPP2R2D | inactive: -0.118
CAGCUACCAUAGUUGCUAUTT against PCDH15 | inactive: -0.712
GGACAACUAGGGCUGCGAATT against CCR10 | inactive: -0.129
CCAAGUCCCAUACAACAAATT against C1S | inactive: -0.561
ACAGAUCCAUUUUUAGGGATT against PKIG | inactive: 0.0916
GGAUCAUGUGGUACUUAUUTT against SLC6A19 | inactive: 0.478
CUCUUUCAAGUAUGAGACATT against INHA | inactive: 0.231
GGUUCAGCAUAGUCCCAUATT against ENTPD1 | inactive: 0.567
GAAGCACUUCUGUCCCAAUTT against RHOB | inactive: -0.776
CGAUGGACAGUGUCUCUUATT against ALG6 | inactive: 0.106
CCGCCUUUCAAGAACGUAATT against IARS | inactive: -0.198
CGACGAGCACCAUUAGGAATT against EFHB | inactive: 0.675
GCUUCGGAAUUCAGACAUUTT against NFATC4 | inactive: 0
CAAAUGGGACUGUCAAUUATT against REPS2 | inactive: 0.454
GCUAAACACUAUUAUUCUATT against LRP2BP | inactive: -0.547
GACAGACCACAAAAAGGAATT against MICAL1 | inactive: 0.31
GCAUCGAAAGGCACAUCAATT against ZDHHC16 | inactive: 0.0194
CCUCAACUCGUGAAGAAGATT against GPRC5A | inactive: -0.56
GGAAGGACCUCUAUGCUAATT against ACTA2 | inactive: 0.739
GGCUUUGCAUCGGAAAUCATT against BCKDHB | inactive: 0.366
GCUCAUUCCUUCUACAAUUTT against CACNA1G | inactive: 0.436
